“Also recorded” adds a separate entry of the source.
Test system: mdx mice
Assay: Serum creatine kinase levels in mdx mice
Format: in vivo, mouse
Conditions: n=6 each group, monopotassium salt

CCCCc1nc(Cl)c(CO)n1Cc1ccc(-c2ccccc2-c2nnn[nH]2)cc1.[K] [losartan, 2-butyl-4-chloro-1-[p-(o-1H-tetrazol-5-ylphenyl)benzyl]imidazole-5-methanol monopotassium salt]
Creatine kinase levels in the serum, treated versus untreated: did not show any significant differences; also recorded: no statistical significance

— patent US8597646B2, “Methods and compositons featuring TGF-beta antagonists for the treatment of marfan syndrome and associated disorders” (The Johns Hopkins University, priority 2005, dated 2013)
